# This is one part of the list.
# Assays:
# Experiment in all cases: glycan array binding signal (z-score within array); higher = stronger binding
# Conditions in all cases: glycan notation: IUPAC condensed, linker removed
# [1] = molecular target: GlcNAc(a1-4)Gal(b1-3)GlcNAc
# In short: (§1)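 The binding signal is a Z-score computed within each array. Data were drawn from 3228 arrays in the Consortium for Functional Glycomics database, restricted to those with a known protein sequence. Scores were averaged over arrays of the same protein sequence at different concentrations or buffers, and over linkers, and negative values can be taken as non-binding.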
# [2] = molecular target: GlcNAc(a1-4)Gal(b1-4)GalNAc
# In short: as §1
# [3] = molecular target: GlcNAc(a1-4)Gal(b1-4)GlcNAc
# In short: as §1
# [4] = molecular target: GlcNAc(a1-4)Gal(b1-4)GlcNAc(b1-3)Gal(b1-4)Glc
# In short: as §1
# [5] = molecular target: GlcNAc(a1-4)Gal(b1-4)GlcNAc(b1-3)Gal(b1-4)GlcNAc
# In short: as §1
# [6] = molecular target: GlcNAc(a1-4)Gal(b1-4)GlcNAc(b1-3)Gal(b1-4)GlcNAc(b1-3)Gal(b1-4)GlcNAc
# In short: as §1
# [7] = molecular target: GlcNAc(a1-4)Gal(b1-4)GlcNAc(b1-3)Gal(b1-4)[Fuc(a1-3)]GlcNAc(b1-3)Gal(b1-4)[Fuc(a1-3)]GlcNAc
# In short: as §1
# [8] = molecular target: GlcNAc(a1-6)Gal(b1-4)GlcNAc
# In short: as §1
# [9] = molecular target: GlcNAc(b1-2)Gal(b1-3)GalNAc
# In short: as §1
# [10] = molecular target: GlcNAc(b1-2)Man(a1-3)[GlcNAc(b1-2)Man(a1-6)]Man(b1-4)GlcNAc(b1-4)GlcNAc
# In short: as §1
# [11] = molecular target: GlcNAc(b1-2)Man(a1-3)[GlcNAc(b1-2)Man(a1-6)]Man(b1-4)GlcNAc(b1-4)[Fuc(a1-6)]GlcNAc
# In short: as §1
# [12] = molecular target: GlcNAc(b1-2)Man(a1-3)[GlcNAc(b1-4)][GlcNAc(b1-2)Man(a1-6)]Man(b1-4)GlcNAc(b1-4)GlcNAc
# In short: as §1
# [13] = molecular target: GlcNAc(b1-2)Man(a1-3)[GlcNAc(b1-4)][GlcNAc(b1-2)Man(a1-6)]Man(b1-4)GlcNAc(b1-4)[Fuc(a1-6)]GlcNAc
# In short: as §1
# [14] = molecular target: GlcNAc(b1-2)[GlcNAc(b1-4)]Man(a1-3)[GlcNAc(b1-2)Man(a1-6)]Man(b1-4)GlcNAc(b1-4)GlcNAc
# In short: as §1
# [15] = molecular target: GlcNAc(b1-2)[GlcNAc(b1-4)]Man(a1-3)[GlcNAc(b1-4)][GlcNAc(b1-2)Man(a1-6)]Man(b1-4)GlcNAc(b1-4)GlcNAc
# In short: as §1
# [16] = molecular target: GlcNAc(b1-2)[GlcNAc(b1-4)]Man(a1-3)[GlcNAc(b1-4)][GlcNAc(b1-2)[GlcNAc(b1-6)]Man(a1-6)]Man(b1-4)GlcNAc(b1-4)GlcNAc
# In short: as §1
# [17] = molecular target: GlcNAc(b1-2)[GlcNAc(b1-4)]Man(a1-3)[GlcNAc(b1-4)][GlcNAc(b1-2)[GlcNAc(b1-6)]Man(a1-6)]Man(b1-4)GlcNAc(b1-4)[Fuc(a1-6)]GlcNAc
# In short: as §1
# [18] = molecular target: GlcNAc(b1-2)[GlcNAc(b1-6)]Man(a1-6)[GlcNAc(b1-2)Man(a1-3)]Man(b1-4)GlcNAc(b1-4)GlcNAc
# In short: as §1
# [19] = molecular target: GlcNAc(b1-2)[GlcNAc(b1-6)]Man(a1-6)[GlcNAc(b1-2)Man(a1-3)]Man(b1-4)GlcNAc(b1-4)[Fuc(a1-6)]GlcNAc
# In short: as §1
binder,measurement,setting,value
OS9 (Arabidopsis thaliana) (protein) MRGSHHHHHHGMASMTGGQQMGRDLYDDDDKSRLQIFPAHLVGTFSRNNREPKYKIEFLPEDSPFHPGDNLESMVMLDKHGNRFLCYLPKEEKATSGWTSSQQNISTVMMETQQLVKLKTPDELLQPLSEKCLFRQEGWWSYEFCHQKYVRQLHVEDENKIVQEFFLGTFDPEATAAFNQTVSDASTDASQRYHSHVYTNGTTCDLTGSPREVEVRFVCAETRAMVTSITELSTCKYALTVQCPTLCKHPLFQLEKPVSHTIHCNAIPVEEDATRNKEEQAVDESPKMIADS,glycan array binding signal (z-score),[1],-0.06
same,glycan array binding signal (z-score),[2],0.379
same,glycan array binding signal (z-score),[3],-0.812
same,glycan array binding signal (z-score),[4],-0.706
same,glycan array binding signal (z-score),[5],-0.549
same,glycan array binding signal (z-score),[6],-0.35
same,glycan array binding signal (z-score),[7],-1.33
same,glycan array binding signal (z-score),[8],-0.016
same,glycan array binding signal (z-score),[9],0.066
same,glycan array binding signal (z-score),[10],-1.16
same,glycan array binding signal (z-score),[11],-0.237
same,glycan array binding signal (z-score),[12],-0.105
same,glycan array binding signal (z-score),[13],-1.1
same,glycan array binding signal (z-score),[14],-0.735
same,glycan array binding signal (z-score),[15],-0.147
same,glycan array binding signal (z-score),[16],0.258
same,glycan array binding signal (z-score),[17],0.273
same,glycan array binding signal (z-score),[18],-0.361
same,glycan array binding signal (z-score),[19],-0.161

# Rewritten with tabs: entries from further up
binder	measurement	setting	value
OS9 (Arabidopsis thaliana) (protein) MRGSHHHHHHGMASMTGGQQMGRDLYDDDDKSRLQIFPAHLVGTFSRNNREPKYKIEFLPEDSPFHPGDNLESMVMLDKHGNRFLCYLPKEEKATSGWTSSQQNISTVMMETQQLVKLKTPDELLQPLSEKCLFRQEGWWSYEFCHQKYVRQLHVEDENKIVQEFFLGTFDPEATAAFNQTVSDASTDASQRYHSHVYTNGTTCDLTGSPREVEVRFVCAETRAMVTSITELSTCKYALTVQCPTLCKHPLFQLEKPVSHTIHCNAIPVEEDATRNKEEQAVDESPKMIADS	glycan array binding signal (z-score)	[2]	0.379
same	glycan array binding signal (z-score)	[6]	-0.35

# Source: the supplement of paper PMC8728848
